Results from PubChem BioAssay AID504375 (National Center for Advancing Translational Sciences (NCATS), 2011).
Hit rate of the full screen: of about 1,600 compounds, about 25 (2%) were called active. Another 7% or so got no clear call; they are omitted. Calls come from the whole dose curve; as a rule, active = well fitted inhibition curve with a large enough effect; inconclusive = small, poorly fitted or top-dose-only effect, or effect the other way; inactive = no such curve, though single readings can be large or run the other way. This is one part of the list.

Protein sequences, listed by entry. Tags and fused reporters are not part of them.
UniProt Q01196, whole entry, looked up: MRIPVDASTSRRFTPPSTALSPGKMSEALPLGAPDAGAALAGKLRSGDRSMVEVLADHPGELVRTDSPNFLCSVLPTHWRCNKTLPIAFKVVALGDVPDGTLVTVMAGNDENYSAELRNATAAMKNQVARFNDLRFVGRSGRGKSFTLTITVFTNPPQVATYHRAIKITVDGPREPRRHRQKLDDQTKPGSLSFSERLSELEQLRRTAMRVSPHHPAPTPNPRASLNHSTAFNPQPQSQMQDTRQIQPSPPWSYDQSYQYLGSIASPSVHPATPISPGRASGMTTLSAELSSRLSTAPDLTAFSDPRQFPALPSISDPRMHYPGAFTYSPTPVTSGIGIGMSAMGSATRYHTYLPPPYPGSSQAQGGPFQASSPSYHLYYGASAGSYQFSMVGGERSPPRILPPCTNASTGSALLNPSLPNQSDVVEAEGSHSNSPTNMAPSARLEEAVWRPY
UniProt Q13951, whole entry, looked up: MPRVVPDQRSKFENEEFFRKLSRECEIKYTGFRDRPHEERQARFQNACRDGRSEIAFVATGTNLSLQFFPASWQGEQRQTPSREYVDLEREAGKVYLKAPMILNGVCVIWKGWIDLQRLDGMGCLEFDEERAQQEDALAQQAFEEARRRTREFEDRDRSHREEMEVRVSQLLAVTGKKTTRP

biological target: Runt-related transcription factor 1 (Homo sapiens) + Core-binding factor subunit beta (Homo sapiens) (UniProt Q01196+Q13951); test: qHTS Assay for Compounds Blocking the Interaction Between CBF-beta and RUNX1 for the Treatment of Acute Myeloid Leukemia: Hit Validation with Orthogonal Assay; conditions: CBFbeta-RUNX1 binding orthogonal assay, biochemical; series mostly up to 41 µM; activity change, negative = inhibition: at the top concentration
Outline: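 This is an orthogonal TR-FRET assay. His6-CBF-beta and biotin-RUNX1 (30 nM each) were preincubated with compound for 30 min, then Tb-anti-His antibody (0.44 ng) and streptavidin-XL665 (5 nM) were added. The signal was read after 90 min.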
% is set by controls: 0 for no effect and ±100 for the full control effect.

Activity change, negative = inhibition, inactive:
COc1ccc(CCNC(=S)N(C)C)cc1OC 4.11%
NC(=O)C1CCN(C(=O)Nc2csc3ccccc23)CC1 2.19%
COc1cccc(NC(=O)C2CC(=O)N/C(=N/NC(=O)c3ccc(C)cc3)S2)c1 (stereo unspecified) 15.3%
COc1ccc(/C(C#N)=C/c2ccccn2)cc1 15.8%
CCc1nc2oc3ccccc3c(=O)c2c(=O)n1-c1ccc(C)cc1 -12.6%
CC(C)(C)OC(=O)N1CCCN(C(=O)Nc2ccc(C(F)(F)F)cc2)CC1 9.91%
CCOC(=O)Nc1ccc(C(=O)/C=C/c2ccccc2)cc1 -2.59%
CC(C)CC(=O)N=C1SC2CS(=O)(=O)CC2N1Cc1ccccc1Cl (stereo unspecified) 11.2%
Cn1c(N)c(C(=O)Nc2ccc(-c3ccccc3)cc2)sc1=S -9.4%
Cc1cc2nc(-c3ccccc3)cc(=O)n2[nH]1 -13.2%
CCn1c(NC(=O)C(C)C)c(-c2cccs2)c(=O)c2ccccc21 -18.4%
Fc1ccc(C2=Nn3c(nnc3-c3ccco3)SC2)cc1 9.71%
Cc1ccc(S(=O)(=O)NNC(=O)c2cc(C)cs2)cc1 8.56%
Clc1ccc(Nc2ncnc3c2nnn3Cc2ccccc2)cc1 2.04%
CCOc1ccc(Nc2c3ccccc3nc3ccccc23)cc1 11.1%
CC1=NN(c2nc3ccccc3[nH]2)C(=O)C1Cc1ccccc1 (stereo unspecified) 9.77%
O=C(CSc1nc2cc(Cl)c(Cl)cc2[nH]1)c1ccc2c(c1)OCO2 -10%
CC(C)(C)SCCNS(=O)(=O)c1ccc(C#N)cc1 12.4%
O=[N+]([O-])c1cccnc1Oc1cccnc1 32.5%
OC[C@H](O)[C@H](O)[C@@H](O)[C@@H](O)[C@@H]1SC(c2ccccc2)=NN1c1ccccc1 11%
CCN(CC)CC(O)Cn1c(-c2cccc(Cl)c2)nc2cc(C)c(C)cc21 (stereo unspecified) 1.63%
C=CCOc1c(CCC)cc(CCC)cc1C(N)=O 10.7%
COc1nc(C)ccc1-c1noc(-c2cccs2)n1 -3.73%
CCOC(=O)c1nn(-c2ccc([N+](=O)[O-])cc2)cc1O 64.7%
O=C1NCCc2c1[nH]c1ccccc21 -12%
CCOC(=O)c1ccc(N2CCCCC2)c(NS(=O)(=O)c2ccc(C)cc2)c1 10.9%
Fc1c(CSC(=S)N2CCOCC2)cccc1CSC(=S)N1CCOCC1 8.61%
COc1ccc(Oc2ccc(-c3ccn[nH]3)cc2)cc1 -5.37%
O=S(=O)(Nc1cccc(CCc2ccccn2)c1)c1ccc(Cl)cc1 1.84%
O=C(N/N=C/c1ccc2c(c1)OCCO2)c1ccncc1 12.8%
CN(C)C=Nc1ccc(Cl)c(Cl)c1 6.66%
CCOC(=O)c1nnn2c1nc(N1CCCCC1)c1ccccc12 -6.21%
CCCCC1CCCC12NC(=O)NC2=O (stereo unspecified) -8.01%
Nc1ncccc1OCc1ccc(Cl)c(Cl)c1 6.83%
Clc1ccccc1/C=C/c1nc(-c2ccccn2)no1 19.8%
CCCCNC(=O)Nc1ncn[nH]1 -0.856%
COc1ccc(/C=N/OC(=O)c2ccc(Cl)cc2)c(Cl)c1OC -9.47%
CCN1C(=O)[C@@H]2C(C(=O)c3cnccn3)=NN[C@@H]2C1=O 6.63%
C/C(=N\Nc1ccc(Cl)c(C(=O)O)c1)c1cccs1 6.61%
Cc1cccc(OCC(=O)N(Cc2ccc(N(C)C)cc2)C2CCS(=O)(=O)C2)c1 (stereo unspecified) 1.09%
N#Cc1cc(-c2ccccc2)[nH]c1-c1nccc2ccccc12 7.47%
CCn1c(O)c(C=NCc2ccccc2)sc1=S 18.3%
Cc1cc(OCC(=O)c2ccc(C(F)(F)F)cc2)n2cnnc2n1 4.58%
C/C(=N\NC(=O)c1cc(-c2cccc([N+](=O)[O-])c2)n[nH]1)c1ccc(F)cc1 24.3%
O=C(c1ccc(Cn2ccc([N+](=O)[O-])n2)cc1)N1CCN(Cc2ccccc2)CC1 19.1%
Cc1ccccc1CSc1nnc([C@@H]2CCCN2)o1 -22.8%
CC(C)CC(=O)NC(=S)Nc1ccc(N2CCCC2)c(Cl)c1 2.43%
CC1CC2OC(=O)C3(C)CCCC(C)(C23)C1(O)CCc1ccoc1 (stereo unspecified) -2.79%
COc1ccc([N+](=O)[O-])cc1NC(=O)N(C)Cc1ccco1 26.4%
CC(=O)Nc1nc(C)c(-c2csc(Nc3ccc(S(N)(=O)=O)cc3)n2)s1 -8.18%
O=C(N/N=C/c1ccc2nccnc2c1)c1ccncc1 56.7%
Nn1c(SCc2cccc(F)c2)nnc1-c1cccnc1 1.79%
COCCn1c(-c2ccc(Cl)cc2)nc2oc3cc(OC)ccc3c(=O)c2c1=O 10.5%
O=C(CNCc1ccco1)Nc1cccc(S(=O)(=O)N2CCCCC2)c1 12.1%
COc1ccc(C(=O)/C=C/Nc2cc(C)ccn2)cc1 24.1%
Cc1ccc(S(=O)(=O)Nc2cc(-c3ccccc3)nn2C)cc1Cl 2.83%
CN(C)c1cc(-c2ccc(C#N)cc2)oc(=O)c1Cl 19.3%
COC(=O)c1ccc(S(=O)(=O)NC(C)(C)C)n1C 11%
CCCCCNc1nc2sc3c(c2c(=O)n1-c1cccc(Cl)c1)CCN(C)C3 10.2%
COc1cscc1C(=O)O 0.991%
CC1CC(C)(C)NC(=S)O1 (stereo unspecified) -6.64%

No new results follow: an excerpt of the list.
Activity change, negative = inhibition, inactive:
CC1=NN(c2nc3ccccc3[nH]2)C(=O)C1Cc1ccccc1 (stereo unspecified) 9.77%
O=C(CSc1nc2cc(Cl)c(Cl)cc2[nH]1)c1ccc2c(c1)OCO2 -10%
CC(C)(C)SCCNS(=O)(=O)c1ccc(C#N)cc1 12.4%
